Reference: publication PMC12431657, “Discovery and mechanistic insights of dibenzoylmethane as a broad spectrum inhibitor of coronavirus” (PLOS Pathogens, 2025)
Where a name gives a salt, the structure may show the parent alone. Read-outs that look alike come from different tables or passages of the source. In all, about 3,300 compounds went through this assay and about 95 (3%) showed an effect of 50% or more. This is one part of the list.

Tested on: HCoV-229E
Set-up: species or system Huh-7; HTS, protection from HCoV-229E induced cell death, luminescent cell viability (CellCounting-Lite 2.0), inhibition rate
Settings: 24 h post infection, 1 h compound pre-incubation, 10 µM, inhibitor

Structure (SMILES) | 229E Inhibition rate | 229E Inhibition rate (229E Inhibition rate, 24 h)
CCCCCCCCCCCC(=O)O [Lauric acid] | 19.5% | –
C[C@@H](O)CC(=O)O [(R)-3-Hydroxybutanoic acid (sodium)] | – | 5.9%
COc1c(O)cc(O)c2c(=O)cc(-c3ccccc3)oc12 [Wogonin] | 22.5% | –
O=c1cc(O)cc(/C=C/c2ccc(O)c(O)c2)o1 [Hispidin] | 0% | –
CC(=O)[C@H]1CC[C@H]2[C@@H]3C[C@H](O)[C@H]4C[C@@H](O)CC[C@]4(C)[C@H]3CC[C@]12C [5α-Pregnane-3β,6α-diol-20-one] | 39.5% | –
Cc1cc(O)c(C)c2c1O[C@](C)(CCC[C@H](C)CCC[C@H](C)CCCC(C)C)CC2 [β-Tocopherol] | 21% | –
O=Cc1cc(O)ccc1O [2,5-Dihydroxybenzaldehyde] | 10.3% | –
O=c1[nH]cc([C@@H]2O[C@H](CO)[C@@H](O)[C@H]2O)c(=O)[nH]1 [Pseudouridine] | 8.5% | –
OC1COC(O)CO1 (stereo not drawn) [1,4-Dioxane-2,5-diol] | 19.9% | –
CC(=O)O[C@H](CC(=O)[O-])C[N+](C)(C)C [Acetyl-L-carnitine (hydrochloride)] | 6.9% | –
CNC[C@@H]1CC[C@@H](N)[C@@H](O[C@H]2[C@H](O)[C@@H](O[C@H]3OC[C@](C)(O)[C@H](NC)[C@H]3O)[C@H](N)C[C@@H]2N)O1 [Micronomicin (sulfate)] | 3.9% | –
O=C(CCCCCCCCc1ccc(O)c(O)c1)c1c(O)cccc1O [Malabaricone C] | 42.8% | –
NC(N)=NCCCC[C@H](N)C(=O)O [H-HomoArg-OH.HCl] | 15.5% | –
CNCC(O)c1ccc(O)cc1 (stereo not drawn) [Synephrine (hydrochloride)] | – | 18.5%
CC(CC(=O)C[C@@H](C)[C@H]1CC(=O)[C@@]2(C)C3=C(C(=O)C[C@]12C)[C@@]1(C)CCC(=O)C(C)(C)[C@@H]1C[C@@H]3O)C(=O)O (stereo partly drawn) [Ganoderic acid D] | 35.3% | –
CC[C@]12CCCN3CCc4c(n(c5ccccc45)[C@@](O)(C(=O)OC)C1)[C@@H]32 [Vincamine] | 16.6% | –
O=C1NCN(c2ccccc2)C12CCN(CCCOc1ccc(F)cc1)CC2 [Spiramide] | 51.4% | –
C=CCSC[C@H](NC(=O)CC[C@H](N)C(=O)O)C(=O)O [γ-Glutamyl-S-allylcysteine] | 12.6% | –
O=Cc1c[nH]c2cccc(O)c12 [4-Hydroxy-1H-indole-3-carbaldehyde] | 4.7% | –

Part of the list above, as tab-separated lines.
Structure (SMILES)	229E Inhibition rate	229E Inhibition rate (229E Inhibition rate, 24 h)
CC(CC(=O)C[C@@H](C)[C@H]1CC(=O)[C@@]2(C)C3=C(C(=O)C[C@]12C)[C@@]1(C)CCC(=O)C(C)(C)[C@@H]1C[C@@H]3O)C(=O)O (stereo partly drawn) [Ganoderic acid D]	35.3%	–
CC[C@]12CCCN3CCc4c(n(c5ccccc45)[C@@](O)(C(=O)OC)C1)[C@@H]32 [Vincamine]	16.6%	–
O=C1NCN(c2ccccc2)C12CCN(CCCOc1ccc(F)cc1)CC2 [Spiramide]	51.4%	–

Later entries:

Structure (SMILES) | 229E Inhibition rate | 229E Inhibition rate (229E Inhibition rate, 24 h)
O=C(O)c1ccccc1O [Salicylic acid] | – | 0%
NC(=O)CC(N)C(=O)O (racemic) [DL-Asparagine] | 3.9% | –
CO[C@H]([C@H](C)[C@H]1O[C@@]2(CC[C@@](C)([C@H]3CC[C@@](C)([C@@H]4O[C@@H]([C@H]5O[C@@](O)(CO)[C@H](C)C[C@@H]5C)C[C@@H]4C)O3)O2)C[C@H](O)[C@H]1C)[C@H](C)C(=O)O [Monensin B] | 55.3% | –
O=C(O)C[C@H](O)C(=O)O [(S)-Malic acid] | 12% | –
C=C(NC(=O)C(=C)NC(=O)c1csc(C2=N[C@@H]3c4csc(n4)[C@H]4NC(=O)c5csc(n5)[C@H]([C@](C)(O)[C@@H](C)O)NC(=O)[C@H]5CSC(=N5)/C(=C/C)NC(=O)[C@H]([C@@H](C)O)NC(=O)c5csc(n5)[C@]3(CC2)NC(=O)[C@H](C)NC(=O)C(=C)NC(=O)[C@H](C)NC(=O)[C@H]([C@@H](C)CC)N[C@@H]2C=Cc3c([C@H](C)O)cc(nc3[C@H]2O)C(=O)O[C@@H]4C)n1)C(N)=O [Thiostrepton] | 5.1% | –
C[C@@H](O)[C@@H](C)O [2,3-Butanediol] | – | 20.3%
COc1cc2c3c(cc4ccccc4c3c1OC)N(C)CC2 [Dehydronuciferine] | 38.8% | –
CC(C)C[C@H](N)C(=O)O [L-Leucine] | 13.3% | –
NC(=O)c1cccnc1 [Nicotinamide] | 16.9% | –
NCCC(=O)N[C@@H](Cc1cnc[nH]1)C(=O)O [L-Carnosine] | 14.6% | –
CC(=O)O[C@]12CCC(C)=CC[C@]13CC[C@H]2[C@@](C)(/C=C/C=C(\C)C(=O)O)OC3=O [Pseudolaric Acid A] | 20.1% | –
CC1CCCCC1=O (stereo not drawn) [2-Methylcyclohexanone] | 22.9% | –
C[C@@H]1O[C@@H](OC[C@H]2O[C@@H](Oc3c(-c4ccc(O)cc4)oc4cc(O)cc(O)c4c3=O)[C@H](O[C@@H]3O[C@@H](C)[C@H](O)[C@@H](O)[C@H]3O)[C@@H](O)[C@@H]2O)[C@H](O)[C@H](O)[C@H]1O [Clitorin] | 8.3% | –
COc1ccc(-c2oc3c(CCC(C)(C)O)c(O)cc(O)c3c(=O)c2O)cc1 [Wushanicaritin] | 51.4% | –
CC[C@H](CC[C@@H](C)[C@H]1CC[C@H]2[C@@H]3CC[C@H]4C[C@@H](O)CC[C@]4(C)[C@H]3CC[C@]12C)C(C)C [Stigmastanol] | 12.4% | –
C/C=C/C#CC#C[C@@H](O)[C@@H](/C=C/CCCO)O[C@@H]1O[C@H](CO)[C@@H](O)[C@H](O)[C@H]1O [Lobetyolin] | 45% | –
O=C(O)[C@@H]1C[C@H](O)CN1 [cis-4-Hydroxy-L-proline] | 15.4% | –
OC[C@H]1O[C@H](OC[C@H]2O[C@H](OC[C@H]3O[C@H](O[C@]4(CO)O[C@H](CO)[C@@H](O)[C@@H]4O)[C@H](O)[C@@H](O)[C@@H]3O)[C@H](O)[C@@H](O)[C@H]2O)[C@H](O)[C@@H](O)[C@H]1O [Stachyose (tetrahydrate)] | 43.8% | –
COC(=O)CCCC(=O)O [5-Methoxy-5-oxopentanoic acid] | 19.1% | –

Structure (SMILES) | 229E Inhibition rate | 229E Inhibition rate (229E Inhibition rate, 24 h)
CCCCCCCCCCCCCCCCC(C(=O)O)C(O)(CC(=O)O)C(=O)O (stereo not drawn) [Agaric acid] | 18.4% | –
COc1cc(C[C@@H](CO)[C@H](CO)Cc2ccc(O)c(OC)c2)ccc1O [(+)-Secoisolariciresinol] | – | 11.2%
CC(=O)O[C@H]1CC[C@]2(C)C3=C(CC[C@H]2C1(C)C)[C@]1(C)C[C@@H](O)[C@H]([C@@H](CCC=C(C)C)C(=O)O)[C@@]1(C)CC3 [3-O-Acetyl-16α-hydroxytrametenolic acid] | 8.3% | –
C[C@@H]1O[C@@H](OC[C@H]2O[C@@H](Oc3c(-c4ccc(O)c(O)c4)oc4cc(O)cc(O)c4c3=O)[C@H](O)[C@@H](O)[C@@H]2O)[C@H](O)[C@H](O)[C@H]1O [Rutin (hydrate)] | – | 19%
CC(C)(C(=O)O)C(=O)O [Dimethylmalonic acid] | 0% | –
CC[C@@H](C(=O)[C@@H](C)[C@@H](O)[C@H](C)CCc1ccc(C)c(O)c1C(=O)O)[C@H]1O[C@](CC)([C@H]2CC[C@](O)(CC)[C@H](C)O2)C[C@@H]1C [Lasalocid (sodium)] | – | 24.8%
CC1(C)CC[C@]2(C(=O)O[C@@H]3O[C@H](CO)[C@@H](O)[C@H](O)[C@H]3O)CC[C@]3(C)C(=CC[C@@H]4[C@@]5(C)CC[C@H](O[C@@H]6O[C@H](C(=O)O)[C@@H](O)[C@H](O)[C@H]6O[C@H]6OC[C@@H](O)[C@H](O)[C@H]6O)C(C)(C)[C@@H]5CC[C@]43C)[C@@H]2C1 [Pseudoginsenoside RT1] | 15.5% | –
O=c1c(O)c(-c2ccc(O)c(O)c2)oc2c(O[C@@H]3O[C@H](CO)[C@@H](O)[C@H](O)[C@H]3O)c(O)cc(O)c12 [Gossypin] | 15.7% | –
C[N+]1(C)CCC[C@H]1C(=O)[O-] [Stachydrine hydrochloride] | – | 11.8%
CC(=O)O[C@H]1C[C@@]2(C)[C@@H](C[C@@H](O)[C@H]3[C@@]4(C)CC[C@@H](O)[C@@H](C)[C@@H]4CC[C@@]32C)/C1=C(\CCC=C(C)C)C(=O)O [Fusidic acid] | – | 31.2%
O=C(c1ccc(OCCN2CCCCC2)cc1)c1c(-c2ccc(O)cc2)sc2cc(O)ccc12 [Raloxifene (hydrochloride)] | 0% | –
CC(=O)CCC=C(C)C [Sulcatone] | 21.2% | –
Oc1cc(O)cc(-c2cc3ccc(O)cc3o2)c1 [Moracin M] | 14.7% | –
C[C@@]12CC[C@@H]3[C@@](CC[C@H]4[C@@]3(C)CCC[C@@]4(C)C(=O)O)(CC1=O)C2 [Isosteviol] | 19% | –
CC[C@@]1([C@H]2O[C@H]([C@H]3O[C@@](O)(CO)[C@H](C)C[C@@H]3C)C[C@H]2C)CC[C@H]([C@@]2(C)CC[C@]3(C[C@H](O)[C@@H](C)[C@@H]([C@H](C)[C@H](OC)[C@@H](C)C(=O)O)O3)O2)O1 [Monensin sodium salt] | 24.5% | –
COc1cc(C[C@H]2C(=O)OC[C@@H]2Cc2ccc(OC)c(OC)c2)ccc1O [Arctigenin] | 14.2% | –
C[C@@H]1CC[C@]2(C(=O)O[C@@H]3O[C@H](CO)[C@@H](O)[C@H](O)[C@H]3O)CC[C@]3(C)C(=CC[C@@H]4[C@@]5(C)CC[C@H](O[C@@H]6OC[C@H](O)[C@H](O)[C@H]6O)C(C)(C)[C@@H]5CC[C@]43C)[C@@H]2[C@]1(C)O [Ziyuglycoside I] | 5% | –
CC(=O)O[C@H]1CC[C@]2(C)[C@H]3CC=C4[C@@H]5CC(C)(C)CC[C@]5(C(=O)O)CC[C@@]4(C)[C@]3(C)CC[C@H]2C1(C)C [3-O-Acetyloleanolic acid] | 2.7% | –
COc1ccc(-c2oc3cc(OC)c(OC)c(O)c3c(=O)c2OC)cc1O [Casticin] | 21.3% | –
